Results from publication PMC10797482, “The Interaction between Collagen 1 and High Mannose Type CD133 Up‐Regulates Glutamine Transporter SLC1A5 to Promote the Tumorigenesis of Glioblastoma Stem Cells” (Advanced Science, 2023).
No constants are given. Whether binding was seen depends on the method and setting. For part of these data: In cells and extracts the contact can be indirect. Some entries that bind do so weakly or less than the wild type. For part of these data: Sequences can lack the tags named with a protein. Each block holds one substance with its values, some of them ahead of it.

Amino acid sequences for entries named in this document (tags omitted). A change or cut given only in a name is not applied to a line headed by its entry. Residues count along the entry.
His-COL1A1(972-1206) (P02452, residues 972-1206): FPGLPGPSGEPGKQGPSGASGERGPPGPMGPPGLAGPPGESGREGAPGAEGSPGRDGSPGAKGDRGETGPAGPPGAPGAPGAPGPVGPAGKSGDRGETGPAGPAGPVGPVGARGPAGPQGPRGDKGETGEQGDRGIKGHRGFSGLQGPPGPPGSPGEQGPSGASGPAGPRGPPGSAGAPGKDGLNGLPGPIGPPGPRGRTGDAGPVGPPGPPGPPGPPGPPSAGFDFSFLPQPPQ
His-COL1A1(972-1206) deletion mutant lacking amino acids 1193–1206 (P02452, residues 972-1192): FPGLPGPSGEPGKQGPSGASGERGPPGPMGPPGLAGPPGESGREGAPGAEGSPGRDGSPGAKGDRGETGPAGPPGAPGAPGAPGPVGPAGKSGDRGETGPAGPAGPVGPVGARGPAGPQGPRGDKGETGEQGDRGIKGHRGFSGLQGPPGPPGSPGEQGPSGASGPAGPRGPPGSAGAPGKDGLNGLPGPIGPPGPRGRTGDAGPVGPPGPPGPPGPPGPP

Tests used:
[1] = target: T1, extracellular N-terminal domain of CD133 (residues 20–108), yeast two-hybrid bait (human) (UniProt O43490); assay: two-hybrid; bait CD133(20-108) in pGBKT7 screened against pACT2 human cDNA library (human fetal brain); four positive clones from 1 × 10^6 clones
T1 sequence: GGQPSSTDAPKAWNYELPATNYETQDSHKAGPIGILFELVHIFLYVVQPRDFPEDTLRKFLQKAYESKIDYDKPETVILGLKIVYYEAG

[2] = target: T2, CD133(43-81)-Strep (human) (UniProt O43490); assay: pull-down; Strep pull-down assay, in vitro (Figure S1I); method not given
T2 sequence: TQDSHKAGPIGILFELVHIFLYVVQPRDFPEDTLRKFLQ

[3] = target: T3, GST-CD133(20-108) (human) (UniProt O43490); assay: pull-down; GST pull-down: 10 µg purified GST fusion protein with GST-beads incubated with His-COL1A1(972-1206) protein 1 h at 4 °C; washed three times with RIPA (1% Triton X-100, 50 mM Tris pH 7.4, 150 mM NaCl, 2 mM EDTA); blot with anti-His antibody; both purified
T3 sequence: T1 sequence

- binding [1]: binds
Substance: COL1A1 (972-1206), clone from the pACT2 human fetal brain cDNA library (from UniProt P02452 972-1206) (domain or fragment)

- binding [2]: binds
Substance: His-COL1A1(972-1206) (from UniProt P02452 972-1206) (domain or fragment)

- binding [3]: binds
Substance: His-COL1A1(972-1206) deletion mutant lacking amino acids 1193–1206 (from UniProt P02452 972-1192) (domain or fragment)
